# Test results published in PubChem BioAssay AID540276 (National Center for Advancing Translational Sciences (NCATS), 2011).
# The campaign covered roughly 300,000 compounds. About 5,400 (1.8%) were called active. The inconclusive results got no clear call from the source; some entries with a clear call stand among them for comparison. Calls follow the shape of the full dose curve; tested in HEK293 cells. Where the call is inconclusive, the potency comes from a doubtful curve fit.
# Experiment: qHTS for inhibitors of binding or entry into cells for Marburg Virus
# Settings: Marburg virus pseudotyped entry inhibition, cell reporter; activity change, negative = inhibition: at 37.8 µM (top of the series) unless noted
# % is scaled to controls: 0 for no effect and ±100 for the full control effect; potency is read from the fitted curve at half-maximal effect.
Structure (SMILES),"activity change, negative = inhibition",Potency
Cc1cc(Cl)ccc1NC(=O)C1CCN(c2nnc(-n3c(C)ccc3C)s2)CC1,inactive: -10% [at 46.1 µM],–
COc1cccc(N2C(=O)NC(=O)/C(=C/c3ccc4c(c3)Cc3ccccc3-4)C2=O)c1,inactive: -15.3%,–
COc1ccccc1N1CCN(C(=O)c2ccc(Cn3c(=S)[nH]c4cc5c(cc4c3=O)OCO5)cc2)CC1,–,"inconclusive: 1.12 µM [activator, partial curve, poor fit]"
CSc1nsc(SCC(=O)Nc2ccccc2F)n1,–,"inconclusive: 2.24 µM [activator, partial curve, poor fit]"
Cc1cccc(Cn2c(C)c(CNC3CCCCC3)c(C(=O)O)c2C)c1,inactive: 3.6% [at 46.1 µM],–
COc1cccc(OC)c1CN(C)C(=O)c1cnccc1C(F)(F)F,–,"inconclusive: 6.31 µM [inhibitor, single point]"
Cc1ccc(C23CC4CC(CC(NC(=O)N5CCN(C)CC5)(C4)C2)C3)cc1,–,"inconclusive: 14.1 µM [inhibitor, single point]"
Cc1cccc(C(=O)Nc2nnc(SCC(=O)Nc3ccc4c(c3)oc3ccccc34)s2)c1,–,"inconclusive: 35.5 µM [inhibitor, single point]"
Cc1nc(NC(=S)NC(=O)c2ccccc2)sc1C(=O)N(C)C,inactive: 23%,–
COc1cc(N2CCCC2)c(OC)cc1/C=C(/C#N)c1cccc(F)c1,–,"inconclusive: 35.5 µM [inhibitor, single point]"
CCOC(=O)CC1C(=O)NCCN1C(=O)c1ccc(Cl)cc1Cl (stereo unspecified),–,"inconclusive: 31.6 µM [activator, partial curve, poor fit]"
Cc1cccc(OCC(=O)Nc2nnc(-c3ccco3)s2)c1,–,"inconclusive: 17.8 µM [activator, single point]"
CCOc1cc(N2CCOCC2)c(OCC)cc1NC(=O)Cc1ccccc1OC,inactive: 2.89%,–
Cc1ccc(C(=O)NNC2CC(=O)N(c3ccc4c(c3)OCCO4)C2=O)cc1 (stereo unspecified),–,"inconclusive: 3.98 µM [inhibitor, single point]"
Cc1ccc(-n2cc(CN3CCC(O)(c4ccccn4)CC3)c(-c3ccc(F)cc3)n2)cc1,–,active: 3.98 µM
O=C(N/N=C/c1cc(Br)c(Br)s1)c1ccncc1,–,"inconclusive: 12.6 µM [inhibitor, partial curve, poor fit]"
CCn1c(SCC(=O)Nc2nccs2)nnc1-c1ccc(S(=O)(=O)N2CCCCCC2)cc1,–,"inconclusive: 16.4 µM [inhibitor, single point]"
Cc1ccccc1NC(=S)N/N=C1\CC(C)(C)Oc2ccc(O)cc21,–,"inconclusive: 7.08 µM [inhibitor, partial curve, poor fit]"
CSCC[C@H](NC(=O)c1cccc(S(=O)(=O)N2CCCCCC2)c1)c1nc2ccccc2[nH]1,–,"inconclusive: 22.4 µM [inhibitor, partial curve, poor fit]"
O=C(Nc1ccc2c(c1)C(=O)N(CC1CCCO1)C2=O)c1ccc(Cl)c(Cl)c1 (stereo unspecified),–,"inconclusive: 4.11 µM [inhibitor, partial curve, poor fit]"
C/C(=N\NC(=O)c1ccc2c(c1)OCCO2)c1ccccc1,–,"inconclusive: 7.08 µM [inhibitor, partial curve, poor fit]"
COc1cccc(S(=O)(=O)Nc2ccc3c(c2)OCCO3)c1,inactive: -12.2%,–

Structure (SMILES),"activity change, negative = inhibition",Potency
Nc1nccc(/C=C/c2ccc(Cl)cc2)n1,–,"inconclusive: 3.16 µM [activator, single point]"
CCN(CC)CCNCC(O)(c1ccc(Cl)cc1)c1ccc(Cl)cc1,–,"inconclusive: 35.5 µM [inhibitor, partial curve, poor fit]"
CN(CC(=O)Nc1ccc(Cl)cc1)C(=O)CCc1ccccc1,inactive: 13.1% [at 46.1 µM],–
CC(Oc1cccc(Cl)c1)C(=O)Nc1ccc(N2CCOCC2)cc1N1CCOCC1 (stereo unspecified),–,"inconclusive: 15.8 µM [inhibitor, single point]"
O=C(Cc1ccccc1)Nc1ccccc1C(=O)O,inactive: 26.1%,–
Cc1ccc(C)c(N/C=C(\C#N)c2nc3ccccc3o2)c1,inactive: 15.7%,–
Cc1ccccc1NC(=O)CN(c1ccc(Cl)cc1Cl)S(=O)(=O)c1ccccc1,–,"inconclusive: 7.94 µM [inhibitor, partial curve, poor fit]"
COc1c2c(nc3occc13)C(CC=C(C)C)(OC)C(=O)C=C2 (stereo unspecified),–,inactive
COc1ccc(NS(=O)(=O)c2cc(NC(=O)C3CC3)ccc2N2CCCCC2)cc1,–,"inconclusive: 10 µM [inhibitor, partial curve, poor fit]"
O=C(NNc1c2ccccc2nc2ccccc12)c1ccc(O)cc1,–,active: 5.8 µM
CC(C)Cc1cc(C(=O)Nc2ccccc2)c2ccccc2n1,–,"inconclusive: 20 µM [inhibitor, single point]"
Fc1ccccc1-n1ncc2c1ncn1nc(Cc3ccccc3)nc21,–,"inconclusive: 5.62 µM [activator, single point]"
CN1CCN(c2ccc(Cl)cc2NC(=O)c2ccc(S(=O)(=O)N3CCCCCC3)cc2)CC1,–,"inconclusive: 14.6 µM [inhibitor, partial curve, poor fit]"
CCC(CC)C(=O)Nc1cc(C(=O)NCCc2ccccc2)ccc1Cl,inactive: 4.28%,–
CCCCCCCCCC(=O)N/N=C/c1ccc(C)s1,–,"inconclusive: 29.1 µM [inhibitor, single point]"
CCCN(C(=O)CCNC(=O)Cn1cnc2ccccc2c1=O)c1cccc(Cl)c1,–,"inconclusive: 6.31 µM [inhibitor, single point]"
C=CCN1C(=O)CSc2ccc(C(=O)NCCC3=CCCCC3)cc21,–,"inconclusive: 20.6 µM [inhibitor, partial curve, poor fit]"
CSCC(C)N1CCC(n2nccc2NC(=O)c2ccc3c(c2)OCO3)CC1 (stereo unspecified),–,"inconclusive: 11.2 µM [inhibitor, single point]"
O=C(NCCS(=O)(=O)N1CCC2(CC1)OCCO2)c1ccccc1,–,"inconclusive: 31.6 µM [activator, single point]"
CCOc1ccc(C2C(C(=O)Nc3ccc(Cl)cc3)=C(C)Nc3nc(C(F)(F)F)nn32)cc1 (stereo unspecified),–,"inconclusive: 3.16 µM [inhibitor, single point]"
COc1ccc(OC)c(S(=O)(=O)N2CC=C(c3c(C)n(CC(=O)N4CCCC4)c4ccccc34)CC2)c1,inactive: 4.19% [at 46.1 µM],–
CCOC(=O)C1(Cc2ccccc2C(F)(F)F)CCN(C2CCN(C(C)C)CC2)CC1,–,active: 7.3 µM

Structure (SMILES),"activity change, negative = inhibition",Potency
O=C(NNC(=O)c1ccc[nH]1)Nc1cccc(C(F)(F)F)c1,inactive: 14.5% [at 46.1 µM],–
COc1ccc(CC(=O)NNC(=O)CCc2ccccc2)cc1,–,"inconclusive: 12.6 µM [activator, partial curve, poor fit]"
COc1ccccc1CC(=O)Nc1ccc2nc(N3CCC(C)CC3)cc(C)c2c1,inactive: -26.1% [at 46.1 µM],–
Cc1nn(C)cc1S(=O)(=O)Nc1ccc(F)c(F)c1,inactive: 4.83% [at 46.1 µM],–
Cc1ccc2[nH]c(=O)c(CN(Cc3ccco3)S(=O)(=O)c3c(C)ccc4nsnc34)cc2c1,–,"inconclusive: 29.1 µM [inhibitor, single point]"
CC(C)CC(=O)NC(=S)Nc1ccc(S(=O)(=O)NC(C)(C)C)cc1,–,"inconclusive: 0.651 µM [activator, partial curve, poor fit]"
CCOC(=O)C1=C(C)Nc2nnnn2C1c1ccccc1Cl (stereo unspecified),–,"inconclusive: 0.1 µM [inhibitor, full curve, poor fit]"
CCN1CCN(CCNC(=O)c2ccc(CS(=O)c3ccc(Cl)cc3)o2)CC1 (stereo unspecified),–,"inconclusive: 11.2 µM [inhibitor, partial curve, poor fit]"
CC(C)(C)c1ccc(CN2N=C(/C=C/c3ccccc3)CCC2=O)cc1,–,"inconclusive: 35.5 µM [inhibitor, single point]"
CS(=O)(=O)N1CCc2cc(C(=O)Nc3cccc(F)c3)ccc21,–,"inconclusive: 39.8 µM [activator, partial curve, poor fit]"
O=C(COC(=O)c1cncc(Br)c1)NCC12CC3CC(CC(C3)C1)C2,–,"inconclusive: 2 µM [activator, partial curve, poor fit]"
O=C1/C(=C/c2cccc([N+](=O)[O-])c2)N2CCC1CC2,–,"inconclusive: 3.16 µM [activator, partial curve, poor fit]"
COc1ccc(CCc2ccnc3ccccc23)cc1,–,"inconclusive: 35.5 µM [inhibitor, partial curve, poor fit]"
CC(=O)C1=C(O)C(=O)N(c2ccc(F)cc2)C1c1ccc(C)cc1 (stereo unspecified),inactive: 5.56% [at 46.1 µM],–
Cc1cc(C)c(S(C)(=O)=O)c(Oc2ccc(C(C)(C)C)cc2)n1,–,"inconclusive: 35.5 µM [inhibitor, single point]"
CSc1ccc(-c2nc(CN3CCCCC3c3cccnc3)c(C)o2)cc1 (stereo unspecified),–,"inconclusive: 15.8 µM [inhibitor, single point]"
CC1=CC(C)(C)Nc2ccc(OC(=O)CN3C(=O)c4ccccc4C3=O)cc21,–,"inconclusive: 35.5 µM [inhibitor, partial curve, poor fit]"
C(=N\Nc1nc2ccccc2[nH]1)/c1cccs1,–,"inconclusive: 2.82 µM [activator, partial curve, poor fit]"
CCc1ccc(C2NC(=O)c3[nH]nc(-c4cccc(OC)c4)c32)cc1 (stereo unspecified),–,"inconclusive: 35.5 µM [inhibitor, single point]"
Cc1ccccc1C(=O)NNC(=O)CCC(=O)Nc1cccc(Cl)c1C,–,"inconclusive: 0.58 µM [activator, single point]"
O=C(COc1ccc2ccccc2c1)NC1=NCCS1,inactive: 3.42%,–
CS(=O)(=O)N1CCN(c2nnc(-c3ccccc3)c3ccccc23)CC1,–,"inconclusive: 23.1 µM [inhibitor, single point]"

# 6 structures from above, ordered by formula weight, high to low.
Structure (SMILES),"activity change, negative = inhibition",Potency
CCn1c(SCC(=O)Nc2nccs2)nnc1-c1ccc(S(=O)(=O)N2CCCCCC2)cc1,–,"inconclusive: 16.4 µM [inhibitor, single point]"
Cc1ccccc1NC(=S)N/N=C1\CC(C)(C)Oc2ccc(O)cc21,–,"inconclusive: 7.08 µM [inhibitor, partial curve, poor fit]"
CSc1nsc(SCC(=O)Nc2ccccc2F)n1,–,"inconclusive: 2.24 µM [activator, partial curve, poor fit]"
COc1c2c(nc3occc13)C(CC=C(C)C)(OC)C(=O)C=C2 (stereo unspecified),–,inactive
O=C(COc1ccc2ccccc2c1)NC1=NCCS1,inactive: 3.42%,–
Nc1nccc(/C=C/c2ccc(Cl)cc2)n1,–,"inconclusive: 3.16 µM [activator, single point]"
